# Laboratory results: PubChem BioAssay AID602196 (INSERM, 2012)
# Assay: 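Modifiers of cisplatin sensitivity in A549 cells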
# Cell system: human A549 lung cancer cells
# Knock-down reagent: siRNA pair against human genes
# Timing: 48 h transfection before cisplatin; time from cisplatin to read-out not stated
# Conditions: cisplatin at a dose killing half of control-siRNA cells; exact dose and duration not given
# Measured: 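Shift in cisplatin death relative to control siRNA, from -50 (all cells die) to +50 (no cells die); siRNAs harmful on their own scored 0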
# Direction: two-siRNA summed score (-2 to +2): higher = both siRNAs protect from cisplatin killing; -2 means both sensitise; mean protection from cisplatin (shift in death): higher = protection from cisplatin killing
# Rule for the call: 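Each siRNA scores 0 if harmful alone by LDH or WST-1, otherwise +1 if it reduces and -1 if it increases cisplatin killing; a gene is active when both siRNAs agree (sum +2 or -2)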
# Calls: active = both siRNAs shift cisplatin killing the same way; inactive = no consistent shift, or siRNA harmful alone
# In all, the deposit lists about 23,000 reagents; this is a random part of them. 455 of them (2%) count as active. 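Active includes both protection and sensitisation; some change values fall well beyond the stated -50 to +50 range.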 Not all columns of the deposit are shown. Not stated in the record: the amount of reagent.
gene,two-siRNA summed score (-2 to +2),mean protection from cisplatin (shift in death) (%),Outcome
ZNF524,1,7.2,inactive
LGI2,0,9.8,inactive
RBM38,0,7.1,inactive
PAXIP1,0,2.7,inactive
TMEM165,-1,1.5,inactive
IBA57,0,0.6,inactive
LMCD1,0,9.1,inactive
LOC440192,0,8.9,inactive
LSM4,0,2.4,inactive
LRP12,0,5.7,inactive
RAD21,0,7.9,inactive
VASH2,0,2.8,inactive
OSBP2,1,10.1,inactive
LOC389352,1,2.5,inactive
SPEM1,-1,-2.6,inactive
LDLRAP1,0,-10.1,inactive
KLF4,0,-1.5,inactive
DDR2,1,14.9,inactive
UTP20,1,10.3,inactive
PARP4,0,-6.4,inactive
RPL5,0,31.8,inactive
CLYBL,1,9.4,inactive
TIMMDC1,0,1.2,inactive

Look-ups from above.
For “two-siRNA summed score (-2 to +2)”, CLYBL shows 1
For “mean protection from cisplatin (shift in death) (%)”, LRP12 is entered as 5.7
